Taken from: PubChem BioAssay AID686943 (Drosophila RNAi Screening Center, 2013)
In all, the deposit lists about 23,000 reagents; this is a random part of those with a known target gene and a result. 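Extra replicates exist only for a retested subset of genes; insulin dose and duration not given; both raised and lowered dpERK matter.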 Reagents against one gene are numbered here. Names joined by + are all predicted targets of the reagent. Not all columns of the deposit are shown. Not stated in the record: the amount of reagent, the time to read-out.

- Assay: 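Search across the genome for regulators of signalling from receptor tyrosine kinase to ERK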 (primary screen)
- Cells: Drosophila S2R+ haemocyte-like cells expressing YFP-tagged ERK (Rolled)
- Reagents: long dsRNA against Drosophila genes
- Challenge: insulin stimulation versus unstimulated cells; dose and duration not given
- Measurement: 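Antibody staining for doubly phosphorylated ERK divided by ERK-YFP signal, as plate z-scores, in insulin-treated and untreated cells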
- Scale: replicate 1, z-score of dpERK with insulin: higher = more active ERK per ERK-YFP after insulin

Spn42Dc (Serpin 42Dc) → replicate 1, z-score of dpERK with insulin: 0.91
CG3408 → replicate 1, z-score of dpERK with insulin: 0.34
CG34326 (retired record) → replicate 1, z-score of dpERK with insulin: -0.26
CG5446 → replicate 1, z-score of dpERK with insulin: -0.1
CG1077 → replicate 1, z-score of dpERK with insulin: 1.1
lambdaTry → replicate 1, z-score of dpERK with insulin: 0.29
Or19b + Or19a → replicate 1, z-score of dpERK with insulin: 0.06

Records listed so far whose gene name starts with C or c:
CG3408 → replicate 1, z-score of dpERK with insulin: 0.34
CG34326 (retired record) → replicate 1, z-score of dpERK with insulin: -0.26
CG5446 → replicate 1, z-score of dpERK with insulin: -0.1
CG1077 → replicate 1, z-score of dpERK with insulin: 1.1

Continued.
CG12341 → replicate 1, z-score of dpERK with insulin: 1.07
CG9988 → replicate 1, z-score of dpERK with insulin: -0.02
CG13692 → replicate 1, z-score of dpERK with insulin: 0.15
Saf-B (Scaffold attachment factor B) → replicate 1, z-score of dpERK with insulin: 4.26
CG31875 → replicate 1, z-score of dpERK with insulin: -0.7
CG3437 → replicate 1, z-score of dpERK with insulin: 0.26
lncRNA:CR43372 (long non-coding RNA:CR43372) → replicate 1, z-score of dpERK with insulin: 0.21
CG14511 → replicate 1, z-score of dpERK with insulin: -0.39
CG1801 → replicate 1, z-score of dpERK with insulin: 0.18
CG30022 → replicate 1, z-score of dpERK with insulin: 0.87
CG11842 → replicate 1, z-score of dpERK with insulin: -0.72
Chd1 (Chromodomain-helicase-DNA-binding protein 1) → replicate 1, z-score of dpERK with insulin: 1.09
wb (wing blister) #1 → replicate 1, z-score of dpERK with insulin: -5.86
wb (wing blister) #2 → replicate 1, z-score of dpERK with insulin: -0.09
